For five molecules, binding results are on record in publication PMC7753874.

The chains behind the UniProt entries cited, without tags or fusion partners.
UniProt Q8BUN5: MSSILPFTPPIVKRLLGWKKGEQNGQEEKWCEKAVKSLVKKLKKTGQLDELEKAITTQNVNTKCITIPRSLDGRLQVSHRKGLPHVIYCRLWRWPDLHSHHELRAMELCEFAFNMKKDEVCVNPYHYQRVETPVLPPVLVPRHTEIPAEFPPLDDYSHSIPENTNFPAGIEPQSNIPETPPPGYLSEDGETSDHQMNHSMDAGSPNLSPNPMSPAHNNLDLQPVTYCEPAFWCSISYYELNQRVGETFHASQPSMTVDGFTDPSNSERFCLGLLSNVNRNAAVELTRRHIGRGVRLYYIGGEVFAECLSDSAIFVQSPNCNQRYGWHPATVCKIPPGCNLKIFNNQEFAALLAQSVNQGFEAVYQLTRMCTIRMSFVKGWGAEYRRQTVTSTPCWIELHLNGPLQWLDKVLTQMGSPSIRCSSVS

Read-outs that look alike come from different tables or passages of the source. No constants are given. Whether binding was seen depends on the method and setting. For part of these data: Binding seen in cells or lysates may run through a third protein. Some entries that bind do so weakly or less than the wild type. For part of these data: Where a sequence is shown, tags or fusion partners need not be part of it.

In experiment [1] the target is Smad3 (Sma and Mad homologue 3) of mouse lung pericytes (mouse (endogenous in mouse lung pericytes)) (UniProt Q8BUN5). Description: co-IP; Pierce Co-Immunoprecipitation Kit; the cells' own proteins in lysates of mouse lung pericytes; with or without TGF-β1 (5 ng/mL, 1 h or 2 h); in Figure 6B cells also transfected with FoxM1- and TIF1γ-expressing plasmids, in Figure 6E with Smad3 siRNAs or negative control.

The target of experiment [2] is recombinant GST-Smad3 (Sma and Mad homologue 3) (UniProt Q8BUN5). Kind of experiment: pull-down; GST-Smad3 incubated with His-FoxM1; Pierce GST Protein Interaction Pull-Down Kit; resins washed with PBS; Western blotting with antibodies targeting FoxM1; both purified.
Experiment [3] deals with phosphorylated Smad3 of mouse lung pericytes (mouse (endogenous in mouse lung pericytes)) (UniProt Q8BUN5). Description: co-IP; Pierce Co-Immunoprecipitation Kit; the cells' own proteins in lysates of mouse lung pericytes; with or without TGF-β1 (5 ng/mL, 1 h or 2 h); in Figure 6B cells also transfected with FoxM1- and TIF1γ-expressing plasmids, in Figure 6E with Smad3 siRNAs or negative control.

The target in experiment [4] is Smad3 (Sma and Mad homologue 3) of mouse lung pericytes (mouse (endogenous in mouse lung pericytes)) (UniProt Q8BUN5). The description is as above. The source holds these as a separate data set.
For experiment [5], the target named is T1, exogenous Smad4 expressed in mouse lung pericytes, P97471.
T1 chain: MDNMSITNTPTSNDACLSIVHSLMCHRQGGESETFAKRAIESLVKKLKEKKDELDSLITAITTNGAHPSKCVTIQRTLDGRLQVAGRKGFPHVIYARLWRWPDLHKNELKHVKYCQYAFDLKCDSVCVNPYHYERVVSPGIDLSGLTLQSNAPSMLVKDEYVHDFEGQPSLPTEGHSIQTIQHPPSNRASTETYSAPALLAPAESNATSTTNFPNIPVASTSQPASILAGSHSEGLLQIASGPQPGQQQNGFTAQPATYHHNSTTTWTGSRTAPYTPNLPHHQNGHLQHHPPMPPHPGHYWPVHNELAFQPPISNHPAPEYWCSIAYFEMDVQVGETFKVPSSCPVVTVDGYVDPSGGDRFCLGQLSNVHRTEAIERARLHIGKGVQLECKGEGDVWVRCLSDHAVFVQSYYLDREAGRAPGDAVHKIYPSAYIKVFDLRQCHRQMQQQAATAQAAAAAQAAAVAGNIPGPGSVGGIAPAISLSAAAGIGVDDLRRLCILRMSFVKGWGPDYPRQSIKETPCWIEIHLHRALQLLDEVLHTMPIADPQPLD
Description: co-IP; Pierce Co-Immunoprecipitation Kit; mouse lung pericytes transfected with the indicated plasmids, with or without FoxM1 overexpression; TGF-β1 5 ng/mL for 16 h (Smad4 with TIF1γ) or 2 h (Smad3 with TIF1γ). The note with it: remark: other sources report otherwise.

The target of experiment [6] is T2, Smad4 (Sma and Mad homologue 4) of mouse lung pericytes (mouse (endogenous in mouse lung pericytes)), P97471.
T2 chain: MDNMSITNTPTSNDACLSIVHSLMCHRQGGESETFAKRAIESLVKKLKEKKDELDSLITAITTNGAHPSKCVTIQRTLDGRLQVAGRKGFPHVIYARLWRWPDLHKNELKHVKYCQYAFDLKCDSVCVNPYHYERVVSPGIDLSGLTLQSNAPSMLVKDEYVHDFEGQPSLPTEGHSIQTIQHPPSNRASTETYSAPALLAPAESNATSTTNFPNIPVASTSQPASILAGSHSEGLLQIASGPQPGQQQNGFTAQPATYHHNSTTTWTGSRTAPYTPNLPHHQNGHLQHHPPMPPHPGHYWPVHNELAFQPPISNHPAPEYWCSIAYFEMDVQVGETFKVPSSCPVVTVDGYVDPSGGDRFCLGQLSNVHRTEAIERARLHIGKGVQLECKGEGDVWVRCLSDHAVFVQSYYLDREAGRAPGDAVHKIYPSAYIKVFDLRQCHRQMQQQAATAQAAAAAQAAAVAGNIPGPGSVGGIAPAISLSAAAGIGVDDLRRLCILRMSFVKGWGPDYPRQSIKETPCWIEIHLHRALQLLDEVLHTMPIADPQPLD
Description: co-IP; Pierce Co-Immunoprecipitation Kit; the cells' own proteins in lysates of mouse lung pericytes; with or without TGF-β1 (5 ng/mL, 1 h or 2 h); in Figure 6B cells also transfected with FoxM1- and TIF1γ-expressing plasmids, in Figure 6E with Smad3 siRNAs or negative control. The note with it: remark: other sources report otherwise.

As for “Smad4 (Sma and Mad homologue 4) of mouse lung pericytes (from UniProt P97471 1-551)”, the binding result in experiment [1] is “binds”.

B1: recombinant 6X His-tagged FoxM1 (Forkhead box M1) (protein, UniProt O08696 1-760)
chain: MRTSPRRPLILKRRRLPLPVQNAPSETSEEEAKRSPAQPEPAPAQASQEVAESSSCKFPAGIKIINHPTTPNTQVVAIPSNADIQSIITALTAKGKESGTSGPNRFILISSGGPSSHPSQPQAHSSRDSKRAEVITETLGPKPAAKGVPVPKPPGAPPRQRQESYAGGEAAGCTLDNSLTNIQWLGKMSSDGLGPCSVKQELEEKENCHLEQNRVKVEEPSGVSTSWQDSVSERPPYSYMAMIQFAINSTERKRMTLKDIYTWIEDHFPYFKHIAKPGWKNSIRHNLSLHDMFVRETSANGKVSFWTIHPSANRHLTLDQVFKPLEPGSPQSPEHLESQQKRPNPELHRNVTIKTEIPLGARRKMKPLLPRVSSYLEPIQFPVNQSLVLQPSVKVPFRLAASLMSSELARHSKRVRIAPKVLLSSEGIAPLPATEPPKEEKPLLGGEGLLPLLPIQSIKEEEMQPEEDIAHLERPIKVESPPLEEWPSPCASLKEELSNSWEDSSCSPTPKPKKSYCGLKSPTRCVSEMLVTKRREKREVSRSRRKQHLQPPCLDEPDLFFPEDSSTFRPAVELLAESSEPAPHLSCPQEEGGPFKTPIKETLPVSSTPSKSVLSRDPESWRLTPPAKVGGLDFSPVRTPQGAFGLLPDSLGLMELNTTPLKSGPLFDSPRELLNSEPFDLASDPFGSPPPPHVEGPKPGSPELQIPSLSANRSLTEGLVLDTMNDSLSKILLDISFPGLEEDPLGPDNINWSQFIPELR
Take B1: in experiment [2], the binding result is “binds”.

B2: endogenous FoxM1 (Forkhead box M1) of mouse lung pericytes (protein, UniProt O08696 1-760)
chain: MRTSPRRPLILKRRRLPLPVQNAPSETSEEEAKRSPAQPEPAPAQASQEVAESSSCKFPAGIKIINHPTTPNTQVVAIPSNADIQSIITALTAKGKESGTSGPNRFILISSGGPSSHPSQPQAHSSRDSKRAEVITETLGPKPAAKGVPVPKPPGAPPRQRQESYAGGEAAGCTLDNSLTNIQWLGKMSSDGLGPCSVKQELEEKENCHLEQNRVKVEEPSGVSTSWQDSVSERPPYSYMAMIQFAINSTERKRMTLKDIYTWIEDHFPYFKHIAKPGWKNSIRHNLSLHDMFVRETSANGKVSFWTIHPSANRHLTLDQVFKPLEPGSPQSPEHLESQQKRPNPELHRNVTIKTEIPLGARRKMKPLLPRVSSYLEPIQFPVNQSLVLQPSVKVPFRLAASLMSSELARHSKRVRIAPKVLLSSEGIAPLPATEPPKEEKPLLGGEGLLPLLPIQSIKEEEMQPEEDIAHLERPIKVESPPLEEWPSPCASLKEELSNSWEDSSCSPTPKPKKSYCGLKSPTRCVSEMLVTKRREKREVSRSRRKQHLQPPCLDEPDLFFPEDSSTFRPAVELLAESSEPAPHLSCPQEEGGPFKTPIKETLPVSSTPSKSVLSRDPESWRLTPPAKVGGLDFSPVRTPQGAFGLLPDSLGLMELNTTPLKSGPLFDSPRELLNSEPFDLASDPFGSPPPPHVEGPKPGSPELQIPSLSANRSLTEGLVLDTMNDSLSKILLDISFPGLEEDPLGPDNINWSQFIPELR
In the case of B2, the binding result in experiment [3] and in experiment [4] was “binds” in each case.

B3: overexpressed TIF1γ (transcriptional intermediary factor 1 γ) in mouse lung pericytes, Q99PP7 1-1142 (protein)
chain: MAENKGGGEAESGGGGSGSAPVTAGAAGPTAQEAEPPLAAVLVEEEEEEGGRAGAEGGAAGPDDGGVAAASSSSAPAASVPAASVGSAVPGGAASTPAPAAAPAPAPAPAPAPAPAPAPAPAPGSSSGPPLGPPASLLDTCAVCQQSLQSRREAEPKLLPCLHSFCLRCLPEPERQLSVPIPGGSNGDVQQVGVIRCPVCRQECRQIDLVDNYFVKDTSEAPSSSDEKSEQVCTSCEDNASAVGFCVECGEWLCKTCIEAHQRVKFTKDHLIRKKEDVSESVGTSGQRPVFCPVHKQEQLKLFCETCDRLTCRDCQLLEHKEHRYQFLEEAFQNQKGAIENLLAKLLEKKNYVHFAATQVQNRIKEVNETNKRVEQEIKVAIFTLINEINKKGKSLLQQLENVTKERQMKLLQQQNDITGLSRQVKHVMNFTNWAIASGSSTALLYSKRLITFQLRHILKARCDPVPAANGAIRFHCDPTFWAKNVVNLGNLVIESKPAPGYTPNVVVGQVPPGTNHISKTPGQINLAQLRLQHMQQQVYAQKHQQLQQMRLQQPPAPIPTTTATTQQHPRQAAPQMLQQQPPRLISVQTMQRGNMNCGAFQAHQMRLAQNAARIPGIPRHSAPQYSMMQPHLQRQHSNPGHAGPFPVVSAHNPINPTSPTTATMANANRGPTSPSVTAIELIPSVTNPENLPSLPDIPPIQLEDAGSSSLDNLLSRYISGSHLPPQPTSTMNPSPGPSALSPGSSGLSNSHTPVRPPSTSSTGSRGSCGSSGRTAEKSAHSFKSDQVKVKQEPGTEEEICSFSGAVKQEKTEDGRRSACMLSSPESSLTPPLSTNLHLESELDTLTGLENHVKTEPTDISESCKQSGLSNLVNGKSPIRNLMHRSARIGGDGNSKDDDPNEDWCAVCQNGGDLLCCEKCPKVFHLTCHVPTLLSFPSGDWICTFCRDIGKPEVEYDCDNMQHSKKGKTAQGLSPVDQRKCERLLLYLYCHELSIEFQEPVPVSIPNYYKIIKKPMDLSTVKKKLQKKHSQHYQIPDDFVADVRLIFKNCERFNEMMKVVQVYADTQEINLKGDSEVAKAGKAVALYFEDKLSEIYSDRTFTPLPEFEQDEDDGEVTEDSDEDFIQPRRKRLKSDERPVHIK
In the case of B3, in experiment [5], the binding result is “binds”.

B4: TIF1γ (transcriptional intermediary factor 1 γ) of mouse lung pericytes, Q99PP7 1-1142 (protein)
chain: MAENKGGGEAESGGGGSGSAPVTAGAAGPTAQEAEPPLAAVLVEEEEEEGGRAGAEGGAAGPDDGGVAAASSSSAPAASVPAASVGSAVPGGAASTPAPAAAPAPAPAPAPAPAPAPAPAPAPGSSSGPPLGPPASLLDTCAVCQQSLQSRREAEPKLLPCLHSFCLRCLPEPERQLSVPIPGGSNGDVQQVGVIRCPVCRQECRQIDLVDNYFVKDTSEAPSSSDEKSEQVCTSCEDNASAVGFCVECGEWLCKTCIEAHQRVKFTKDHLIRKKEDVSESVGTSGQRPVFCPVHKQEQLKLFCETCDRLTCRDCQLLEHKEHRYQFLEEAFQNQKGAIENLLAKLLEKKNYVHFAATQVQNRIKEVNETNKRVEQEIKVAIFTLINEINKKGKSLLQQLENVTKERQMKLLQQQNDITGLSRQVKHVMNFTNWAIASGSSTALLYSKRLITFQLRHILKARCDPVPAANGAIRFHCDPTFWAKNVVNLGNLVIESKPAPGYTPNVVVGQVPPGTNHISKTPGQINLAQLRLQHMQQQVYAQKHQQLQQMRLQQPPAPIPTTTATTQQHPRQAAPQMLQQQPPRLISVQTMQRGNMNCGAFQAHQMRLAQNAARIPGIPRHSAPQYSMMQPHLQRQHSNPGHAGPFPVVSAHNPINPTSPTTATMANANRGPTSPSVTAIELIPSVTNPENLPSLPDIPPIQLEDAGSSSLDNLLSRYISGSHLPPQPTSTMNPSPGPSALSPGSSGLSNSHTPVRPPSTSSTGSRGSCGSSGRTAEKSAHSFKSDQVKVKQEPGTEEEICSFSGAVKQEKTEDGRRSACMLSSPESSLTPPLSTNLHLESELDTLTGLENHVKTEPTDISESCKQSGLSNLVNGKSPIRNLMHRSARIGGDGNSKDDDPNEDWCAVCQNGGDLLCCEKCPKVFHLTCHVPTLLSFPSGDWICTFCRDIGKPEVEYDCDNMQHSKKGKTAQGLSPVDQRKCERLLLYLYCHELSIEFQEPVPVSIPNYYKIIKKPMDLSTVKKKLQKKHSQHYQIPDDFVADVRLIFKNCERFNEMMKVVQVYADTQEINLKGDSEVAKAGKAVALYFEDKLSEIYSDRTFTPLPEFEQDEDDGEVTEDSDEDFIQPRRKRLKSDERPVHIK
As to B4, the binding entry in experiment [6] was “binds”.
